Measured values: article PMC11762004
These are yes or no findings as the source states them, for the method shown. Binding seen in cells or lysates may run through a third protein. A result given as binding can be weak or reduced; the word gives no strength. Blank lines part the entries; values can stand above or below the molecule they belong to.

Protein sequences, listed by entry. Tags and fused reporters are not part of them. Lines headed by an entry give the natural chain unless they say otherwise; changes in a name come on top.
UniProt P18206: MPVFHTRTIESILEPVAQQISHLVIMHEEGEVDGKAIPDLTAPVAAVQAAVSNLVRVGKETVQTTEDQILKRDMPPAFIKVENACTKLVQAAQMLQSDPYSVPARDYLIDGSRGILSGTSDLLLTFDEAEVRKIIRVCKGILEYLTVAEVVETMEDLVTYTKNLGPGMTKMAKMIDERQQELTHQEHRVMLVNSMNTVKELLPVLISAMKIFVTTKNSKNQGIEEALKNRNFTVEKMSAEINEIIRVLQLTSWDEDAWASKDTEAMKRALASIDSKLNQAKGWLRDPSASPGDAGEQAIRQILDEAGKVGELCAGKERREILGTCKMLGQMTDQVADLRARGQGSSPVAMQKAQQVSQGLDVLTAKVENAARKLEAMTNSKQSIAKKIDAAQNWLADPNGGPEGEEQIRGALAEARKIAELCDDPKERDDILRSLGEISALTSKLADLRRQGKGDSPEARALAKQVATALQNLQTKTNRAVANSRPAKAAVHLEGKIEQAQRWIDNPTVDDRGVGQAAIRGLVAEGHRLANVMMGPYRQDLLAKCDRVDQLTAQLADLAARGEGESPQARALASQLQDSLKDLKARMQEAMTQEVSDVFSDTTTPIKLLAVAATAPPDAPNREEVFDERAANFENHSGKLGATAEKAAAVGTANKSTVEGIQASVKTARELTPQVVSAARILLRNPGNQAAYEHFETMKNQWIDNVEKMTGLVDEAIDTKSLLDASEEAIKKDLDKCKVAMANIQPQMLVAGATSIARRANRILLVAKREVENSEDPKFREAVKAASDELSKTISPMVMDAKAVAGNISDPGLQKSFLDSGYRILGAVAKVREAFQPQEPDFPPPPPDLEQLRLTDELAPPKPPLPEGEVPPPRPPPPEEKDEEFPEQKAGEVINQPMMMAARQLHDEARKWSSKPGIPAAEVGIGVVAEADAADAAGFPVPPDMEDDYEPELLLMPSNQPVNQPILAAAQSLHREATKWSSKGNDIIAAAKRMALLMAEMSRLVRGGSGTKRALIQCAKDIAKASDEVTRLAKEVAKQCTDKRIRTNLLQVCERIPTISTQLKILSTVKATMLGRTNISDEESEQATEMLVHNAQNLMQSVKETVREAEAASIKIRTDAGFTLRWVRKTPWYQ

Tests used:
[1] = molecular target: T1, Glypican-6 (GPC6) (human (endogenous in MDA-MB-231)) (UniProt Q9Y625); experiment: co-IP; MDA-MB-231 cell lysate (20 mM Tris pH 7.4, 150 mM NaCl, 5 mM MgCl2, 0.5% NP-40, protease inhibitors); IP with mouse anti-GPC6, mouse anti-vinculin or control mouse IgG at 4 °C, Protein A/G agarose beads overnight; Western blot with anti-vinculin and anti-GPC6; endogenous proteins
T1 sequence: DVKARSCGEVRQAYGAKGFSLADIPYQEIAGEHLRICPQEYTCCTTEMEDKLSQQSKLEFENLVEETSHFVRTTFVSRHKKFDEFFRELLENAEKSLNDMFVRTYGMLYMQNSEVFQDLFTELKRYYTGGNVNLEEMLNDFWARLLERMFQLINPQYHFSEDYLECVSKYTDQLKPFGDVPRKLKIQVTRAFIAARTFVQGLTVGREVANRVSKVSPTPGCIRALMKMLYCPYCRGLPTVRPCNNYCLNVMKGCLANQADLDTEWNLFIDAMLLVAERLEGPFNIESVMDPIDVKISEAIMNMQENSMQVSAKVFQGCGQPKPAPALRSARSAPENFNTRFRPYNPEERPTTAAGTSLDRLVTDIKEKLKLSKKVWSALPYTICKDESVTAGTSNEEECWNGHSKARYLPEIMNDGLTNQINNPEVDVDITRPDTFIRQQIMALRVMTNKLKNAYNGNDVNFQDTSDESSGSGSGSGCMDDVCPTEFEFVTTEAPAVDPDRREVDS

[2] = molecular target: Vinculin (human (endogenous in MDA-MB-231)) (UniProt P18206); experiment: as above

binding [1]: binds
Molecule: Vinculin (from UniProt P18206-2)

binding [2]: binds weakly
B1: Glypican-6 (GPC6) (protein, UniProt Q9Y625 24-529)
chain: T1 sequence
